Results taken from the supplement of paper PMC10849652.
The other results are listed elsewhere or left out.

Chains of the proteins cited; added tags and fusions are not shown. Lines headed by an entry give the natural chain unless they say otherwise; changes in a name come on top.
UniProt Q15022: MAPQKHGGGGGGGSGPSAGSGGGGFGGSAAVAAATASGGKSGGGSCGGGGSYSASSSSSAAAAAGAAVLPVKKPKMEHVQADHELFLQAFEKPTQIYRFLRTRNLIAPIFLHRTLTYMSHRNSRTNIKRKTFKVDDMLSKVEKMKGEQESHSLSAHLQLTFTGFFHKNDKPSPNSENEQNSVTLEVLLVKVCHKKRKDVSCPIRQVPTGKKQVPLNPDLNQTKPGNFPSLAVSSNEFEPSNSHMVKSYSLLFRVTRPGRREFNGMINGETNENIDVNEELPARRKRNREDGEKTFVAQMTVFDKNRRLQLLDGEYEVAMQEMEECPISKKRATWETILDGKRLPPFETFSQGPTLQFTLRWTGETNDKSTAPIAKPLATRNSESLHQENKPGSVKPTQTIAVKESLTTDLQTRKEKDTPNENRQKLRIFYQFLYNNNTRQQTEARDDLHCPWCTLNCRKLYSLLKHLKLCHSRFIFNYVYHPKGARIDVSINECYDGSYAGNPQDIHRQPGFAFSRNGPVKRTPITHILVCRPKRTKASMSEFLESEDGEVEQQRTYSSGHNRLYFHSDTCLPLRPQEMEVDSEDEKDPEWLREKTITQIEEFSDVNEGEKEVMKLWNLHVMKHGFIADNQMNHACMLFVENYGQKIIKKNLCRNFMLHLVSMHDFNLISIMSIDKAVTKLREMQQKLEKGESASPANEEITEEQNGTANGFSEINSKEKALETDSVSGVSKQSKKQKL
UniProt Q86TJ2: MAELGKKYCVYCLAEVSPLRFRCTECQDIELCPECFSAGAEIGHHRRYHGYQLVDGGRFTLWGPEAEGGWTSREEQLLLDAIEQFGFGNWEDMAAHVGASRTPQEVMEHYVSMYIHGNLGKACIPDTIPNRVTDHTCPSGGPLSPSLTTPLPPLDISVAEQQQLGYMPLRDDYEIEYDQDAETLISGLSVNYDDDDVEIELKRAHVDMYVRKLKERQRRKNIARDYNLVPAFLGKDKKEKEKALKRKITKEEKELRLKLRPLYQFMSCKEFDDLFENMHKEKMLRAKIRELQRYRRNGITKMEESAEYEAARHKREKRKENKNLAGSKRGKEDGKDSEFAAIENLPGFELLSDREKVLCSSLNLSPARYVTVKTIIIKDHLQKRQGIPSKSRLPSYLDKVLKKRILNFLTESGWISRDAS
UniProt Q8NBJ7: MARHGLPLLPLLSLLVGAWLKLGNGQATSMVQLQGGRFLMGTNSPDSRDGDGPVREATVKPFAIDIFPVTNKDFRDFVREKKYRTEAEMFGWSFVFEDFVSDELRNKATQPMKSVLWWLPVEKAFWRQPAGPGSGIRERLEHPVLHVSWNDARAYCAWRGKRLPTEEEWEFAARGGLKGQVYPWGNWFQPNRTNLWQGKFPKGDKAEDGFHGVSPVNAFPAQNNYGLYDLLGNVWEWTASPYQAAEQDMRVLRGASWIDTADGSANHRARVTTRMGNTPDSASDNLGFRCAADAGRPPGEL
UniProt Q9P246, whole entry, looked up: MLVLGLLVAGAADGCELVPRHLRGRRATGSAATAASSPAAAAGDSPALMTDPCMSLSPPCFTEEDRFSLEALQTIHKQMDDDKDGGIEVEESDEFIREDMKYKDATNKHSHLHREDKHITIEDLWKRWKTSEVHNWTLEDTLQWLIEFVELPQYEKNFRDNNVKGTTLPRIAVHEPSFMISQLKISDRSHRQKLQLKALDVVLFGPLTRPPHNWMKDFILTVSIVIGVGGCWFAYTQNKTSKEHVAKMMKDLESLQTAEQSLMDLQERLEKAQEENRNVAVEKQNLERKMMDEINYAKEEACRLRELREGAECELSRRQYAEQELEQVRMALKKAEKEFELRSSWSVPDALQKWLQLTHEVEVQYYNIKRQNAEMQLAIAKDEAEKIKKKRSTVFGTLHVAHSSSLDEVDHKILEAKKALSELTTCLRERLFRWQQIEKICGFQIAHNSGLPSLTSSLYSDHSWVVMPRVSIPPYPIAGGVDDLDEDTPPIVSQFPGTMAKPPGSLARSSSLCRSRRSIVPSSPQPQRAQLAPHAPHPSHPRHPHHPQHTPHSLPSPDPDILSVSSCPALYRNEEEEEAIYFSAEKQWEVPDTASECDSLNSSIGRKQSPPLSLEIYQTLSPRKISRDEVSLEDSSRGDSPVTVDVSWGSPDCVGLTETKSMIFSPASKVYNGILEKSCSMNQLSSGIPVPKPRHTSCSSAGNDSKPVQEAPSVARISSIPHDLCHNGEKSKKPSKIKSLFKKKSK
UniProt Q92797: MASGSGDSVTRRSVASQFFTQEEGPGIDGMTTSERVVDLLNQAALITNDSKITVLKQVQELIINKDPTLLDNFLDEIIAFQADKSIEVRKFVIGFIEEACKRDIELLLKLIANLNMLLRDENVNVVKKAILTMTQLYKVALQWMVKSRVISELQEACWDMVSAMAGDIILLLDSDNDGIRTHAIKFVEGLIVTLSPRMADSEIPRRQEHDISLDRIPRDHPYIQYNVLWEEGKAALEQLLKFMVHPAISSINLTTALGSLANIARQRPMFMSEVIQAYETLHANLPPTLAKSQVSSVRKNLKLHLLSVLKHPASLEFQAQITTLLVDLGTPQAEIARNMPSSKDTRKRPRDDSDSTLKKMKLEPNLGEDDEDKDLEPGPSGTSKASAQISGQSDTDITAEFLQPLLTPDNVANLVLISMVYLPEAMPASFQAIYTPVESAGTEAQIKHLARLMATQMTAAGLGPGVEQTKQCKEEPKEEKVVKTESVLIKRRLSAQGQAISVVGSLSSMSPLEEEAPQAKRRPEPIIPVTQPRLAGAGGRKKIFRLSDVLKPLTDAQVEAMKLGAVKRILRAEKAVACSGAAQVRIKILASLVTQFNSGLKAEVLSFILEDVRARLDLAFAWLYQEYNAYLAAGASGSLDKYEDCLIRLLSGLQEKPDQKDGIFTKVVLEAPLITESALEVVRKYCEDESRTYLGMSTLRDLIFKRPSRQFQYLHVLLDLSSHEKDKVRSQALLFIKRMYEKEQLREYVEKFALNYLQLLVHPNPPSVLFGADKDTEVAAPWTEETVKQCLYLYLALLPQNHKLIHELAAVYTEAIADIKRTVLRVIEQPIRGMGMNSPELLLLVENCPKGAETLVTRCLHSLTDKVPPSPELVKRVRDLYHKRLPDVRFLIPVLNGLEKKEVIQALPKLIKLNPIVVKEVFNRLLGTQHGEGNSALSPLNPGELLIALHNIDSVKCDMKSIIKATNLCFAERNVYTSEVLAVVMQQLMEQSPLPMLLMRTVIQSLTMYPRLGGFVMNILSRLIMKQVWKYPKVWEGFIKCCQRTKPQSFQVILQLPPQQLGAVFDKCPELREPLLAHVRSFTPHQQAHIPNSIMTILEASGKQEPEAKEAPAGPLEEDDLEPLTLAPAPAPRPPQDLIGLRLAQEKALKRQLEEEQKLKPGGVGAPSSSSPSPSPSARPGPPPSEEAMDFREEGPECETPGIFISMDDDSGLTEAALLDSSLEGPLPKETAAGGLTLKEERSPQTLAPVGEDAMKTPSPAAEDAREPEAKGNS
UniProt Q8WUJ0: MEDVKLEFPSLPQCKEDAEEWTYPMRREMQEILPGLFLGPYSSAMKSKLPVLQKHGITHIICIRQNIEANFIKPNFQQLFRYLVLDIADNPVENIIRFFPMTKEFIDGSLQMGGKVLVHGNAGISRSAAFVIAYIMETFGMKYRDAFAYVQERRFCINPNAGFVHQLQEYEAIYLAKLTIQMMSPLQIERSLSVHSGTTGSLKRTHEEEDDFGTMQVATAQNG
UniProt P57105: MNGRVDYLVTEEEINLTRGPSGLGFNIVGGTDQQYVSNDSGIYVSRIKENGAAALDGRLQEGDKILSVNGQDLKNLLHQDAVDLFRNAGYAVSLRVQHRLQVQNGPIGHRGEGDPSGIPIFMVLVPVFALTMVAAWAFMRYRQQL
UniProt P63165, whole entry, looked up: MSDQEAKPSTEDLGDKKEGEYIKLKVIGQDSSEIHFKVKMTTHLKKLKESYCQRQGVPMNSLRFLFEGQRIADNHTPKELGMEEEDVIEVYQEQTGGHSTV
UniProt B4DR80: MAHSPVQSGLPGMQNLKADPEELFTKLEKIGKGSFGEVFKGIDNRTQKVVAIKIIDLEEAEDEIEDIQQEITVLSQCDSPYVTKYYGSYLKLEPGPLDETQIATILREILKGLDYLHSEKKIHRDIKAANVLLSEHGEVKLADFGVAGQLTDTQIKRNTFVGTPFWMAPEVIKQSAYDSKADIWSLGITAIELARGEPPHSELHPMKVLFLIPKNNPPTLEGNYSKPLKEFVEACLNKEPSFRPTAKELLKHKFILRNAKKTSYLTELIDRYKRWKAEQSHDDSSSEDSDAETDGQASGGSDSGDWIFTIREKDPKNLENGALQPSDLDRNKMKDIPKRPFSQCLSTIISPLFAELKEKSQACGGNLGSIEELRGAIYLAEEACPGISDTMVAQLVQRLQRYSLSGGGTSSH
UniProt Q13190: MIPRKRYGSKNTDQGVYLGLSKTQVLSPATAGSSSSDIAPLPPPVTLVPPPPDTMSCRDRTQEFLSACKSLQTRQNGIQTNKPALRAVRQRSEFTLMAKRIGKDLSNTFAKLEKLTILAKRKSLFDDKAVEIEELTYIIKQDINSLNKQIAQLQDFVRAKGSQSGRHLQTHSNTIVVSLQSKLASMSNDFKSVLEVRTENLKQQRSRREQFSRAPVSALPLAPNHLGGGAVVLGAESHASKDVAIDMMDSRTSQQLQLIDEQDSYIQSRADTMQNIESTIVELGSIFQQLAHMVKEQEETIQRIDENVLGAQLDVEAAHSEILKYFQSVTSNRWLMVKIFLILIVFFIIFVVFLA
UniProt Q53T94: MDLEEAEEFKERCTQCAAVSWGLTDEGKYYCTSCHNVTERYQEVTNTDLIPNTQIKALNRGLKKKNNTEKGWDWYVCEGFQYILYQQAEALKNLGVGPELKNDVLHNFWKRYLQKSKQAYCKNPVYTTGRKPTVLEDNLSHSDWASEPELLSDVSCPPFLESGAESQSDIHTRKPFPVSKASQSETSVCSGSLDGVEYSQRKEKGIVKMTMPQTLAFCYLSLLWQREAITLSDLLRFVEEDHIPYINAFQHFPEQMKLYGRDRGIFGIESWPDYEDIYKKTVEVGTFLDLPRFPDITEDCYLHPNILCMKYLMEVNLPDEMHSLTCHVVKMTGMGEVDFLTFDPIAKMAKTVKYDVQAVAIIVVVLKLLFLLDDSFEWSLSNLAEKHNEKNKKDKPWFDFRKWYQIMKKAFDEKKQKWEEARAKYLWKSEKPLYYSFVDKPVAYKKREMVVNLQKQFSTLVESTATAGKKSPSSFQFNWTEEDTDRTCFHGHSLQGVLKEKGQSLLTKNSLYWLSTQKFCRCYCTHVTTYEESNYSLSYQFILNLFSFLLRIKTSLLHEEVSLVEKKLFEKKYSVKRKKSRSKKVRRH
UniProt Q15527: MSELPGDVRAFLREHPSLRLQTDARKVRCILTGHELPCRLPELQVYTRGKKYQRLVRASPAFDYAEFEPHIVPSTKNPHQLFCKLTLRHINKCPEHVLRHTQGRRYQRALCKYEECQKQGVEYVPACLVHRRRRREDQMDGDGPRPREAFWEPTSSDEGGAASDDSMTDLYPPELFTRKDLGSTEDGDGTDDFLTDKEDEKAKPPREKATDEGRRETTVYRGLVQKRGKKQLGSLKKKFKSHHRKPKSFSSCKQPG
UniProt Q16563: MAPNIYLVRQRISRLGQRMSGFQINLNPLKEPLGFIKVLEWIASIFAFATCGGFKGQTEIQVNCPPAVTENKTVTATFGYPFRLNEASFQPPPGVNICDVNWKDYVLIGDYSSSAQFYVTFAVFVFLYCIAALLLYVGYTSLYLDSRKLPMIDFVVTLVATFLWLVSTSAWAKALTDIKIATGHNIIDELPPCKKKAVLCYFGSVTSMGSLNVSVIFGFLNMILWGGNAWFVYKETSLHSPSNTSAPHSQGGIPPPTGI
UniProt O94768: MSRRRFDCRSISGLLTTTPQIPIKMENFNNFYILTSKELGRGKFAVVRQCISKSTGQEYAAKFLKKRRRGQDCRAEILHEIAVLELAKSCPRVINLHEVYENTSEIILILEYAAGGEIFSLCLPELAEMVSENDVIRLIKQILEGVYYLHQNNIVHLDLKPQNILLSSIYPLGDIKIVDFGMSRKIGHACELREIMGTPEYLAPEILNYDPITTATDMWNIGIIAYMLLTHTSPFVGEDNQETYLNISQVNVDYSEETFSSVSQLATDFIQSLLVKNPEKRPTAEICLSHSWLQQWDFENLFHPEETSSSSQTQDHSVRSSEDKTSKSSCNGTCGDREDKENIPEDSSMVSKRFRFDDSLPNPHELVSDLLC

Tests used:
Experiment in all cases: log2 fold change, soluble protein after heating vs DMSO (PISA); higher = thermal stabilisation; K562 lysate, 10 uM; active = over 0.2 and 3.5 SD of the protein, either way, in both replicates (recomputed)
nilotinib = compound: Cc1cn(-c2cc(NC(=O)c3ccc(C)c(Nc4nccc(-c5cccnc5)n4)c3)cc(C(F)(F)F)c2)cn1 [nilotinib]
In short: (§1)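 Dounce homogenisation of K562 pellets in PBS pH 7.4 with 1 mM MgCl2 produced a crude extract, used at 1 mg/mL protein. Exposure to 10 μM compound lasted 30 min, and aliquots were then heated for 3 min across 48°C-58°C, pooled and brought to 0.5% NP-40 at 4°C. The supernatant after 21,000xg for 90 min was quantified by TMTpro 16plex LC-MS/MS with channel sums equalised. Duplicate values are given as log-two fold change in thermal stability relative to solvent controls.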

[1] = compound: Cc1nc(Nc2n[nH]c3c2CN(C(=O)N[C@H](CN(C)C)c2ccccc2)C3(C)C)c2sccc2n1
In short: as §1

dasatinib = compound: Cc1nc(Nc2ncc(C(=O)Nc3c(C)cccc3Cl)s2)cc(N2CCN(CCO)CC2)n1 [dasatinib]
In short: as §1

[2] = compound: Cc1ncc(-c2ccnc(Nc3ccc(S(C)(=O)=O)cc3)n2)n1C(C)C
In short: as §1

[3] = compound: Cn1cc(-c2ccc3c(c2)CCN3C(=O)Cc2cccc(C(F)(F)F)c2)c2c(N)ncnc21
In short: as §1

quisinostat = compound: Cn1cc(CNCC2CCN(c3ncc(C(=O)NO)cn3)CC2)c2ccccc21 [quisinostat]
In short: as §1

tipifarnib = compound: Cn1cncc1[C@@](N)(c1ccc(Cl)cc1)c1ccc2c(c1)c(-c1cccc(Cl)c1)cc(=O)n2C [tipifarnib]
In short: as §1

[4] = compound: NC(=O)Nc1cc(-c2cccc(F)c2)sc1C(=O)N[C@H]1CCCNC1
In short: as §1

[5] = compound: NC(=O)c1cnc(N[C@@H]2CCCC[C@@H]2N)nc1Nc1cccc(-n2nccn2)c1
In short: as §1

[6] = compound: NC1(c2ccc(-c3nc4ccn5c(=O)[nH]nc5c4cc3-c3ccccc3)cc2)CCC1
In short: as §1

[7] = compound: NCC(=O)Nc1ccc(-n2nc(C(F)(F)F)cc2-c2ccc3c(ccc4ccccc43)c2)cc1
In short: as §1

vorinostat = compound: O=C(CCCCCCC(=O)Nc1ccccc1)NO [vorinostat]
In short: as §1

silmitasertib = compound: O=C(O)c1ccc2c(c1)nc(Nc1cccc(Cl)c1)c1ccncc12 [silmitasertib]
In short: as §1

[8] = compound: O=C1NC(=O)C(c2cnc3ccccn23)=C1c1cn2c3c(cc(F)cc13)CN(C(=O)N1CCCCC1)CC2
In short: as §1

entospletinib = compound: c1cn2cc(-c3ccc4cn[nH]c4c3)nc(Nc3ccc(N4CCOCC4)cc3)c2n1 [entospletinib]
In short: as §1

SUCLG2 (UniProt Q96I99)
log2 fold change (nilotinib): inactive: -0.008
log2 fold change [1]: inactive: 0
log2 fold change (dasatinib): inactive: -0.033
log2 fold change [2]: inactive: -0.008
log2 fold change [3]: inactive: 0.027
log2 fold change (quisinostat): inactive: -0.019
log2 fold change (tipifarnib): inactive: -0.007
log2 fold change [4]: inactive: 0.039
log2 fold change [5]: inactive: -0.004
log2 fold change [6]: inactive: -0.016
log2 fold change [7]: inactive: 0.028
log2 fold change (vorinostat): inactive: 0.001
log2 fold change (silmitasertib): inactive: -0.011
log2 fold change [8]: inactive: 0.012
log2 fold change (entospletinib): inactive: 0.005

SUZ12 (UniProt Q15022)
log2 fold change (nilotinib): inactive: 0.03
log2 fold change [1]: inactive: -0.025
log2 fold change (dasatinib): inactive: 0.037
log2 fold change [2]: inactive: -0.013
log2 fold change [3]: inactive: -0.008
log2 fold change (quisinostat): inactive: -0.005
log2 fold change (tipifarnib): inactive: 0.016
log2 fold change [4]: inactive: -0.007
log2 fold change [5]: inactive: -0.013
log2 fold change [6]: inactive: -0.026
log2 fold change [7]: inactive: -0.064
log2 fold change (vorinostat): inactive: -0.156
log2 fold change (silmitasertib): inactive: 0.023
log2 fold change [8]: inactive: 0.021
log2 fold change (entospletinib): inactive: 0.043

TADA2B (UniProt Q86TJ2)
log2 fold change (nilotinib): inactive: -0.044
log2 fold change [1]: inactive: -0.196
log2 fold change (dasatinib): inactive: 0.102
log2 fold change [2]: inactive: 0.124
log2 fold change [3]: inactive: -0.132
log2 fold change (quisinostat): inactive: 0.027
log2 fold change (tipifarnib): inactive: 0.1
log2 fold change [4]: inactive: 0
log2 fold change [6]: inactive: -0.104
log2 fold change [7]: inactive: -0.221
log2 fold change (vorinostat): inactive: -0.495
log2 fold change (silmitasertib): inactive: 0.194
log2 fold change [8]: inactive: -0.138

SUMF2 (UniProt Q8NBJ7)
log2 fold change (nilotinib): inactive: 0.031
log2 fold change [1]: inactive: -0.038
log2 fold change (dasatinib): inactive: -0.002
log2 fold change [2]: inactive: 0.045
log2 fold change [3]: inactive: 0.035
log2 fold change (quisinostat): inactive: -0.008
log2 fold change (tipifarnib): inactive: -0.006
log2 fold change [4]: inactive: -0.011
log2 fold change [5]: inactive: -0.01
log2 fold change [6]: inactive: 0.01
log2 fold change [7]: inactive: 0.016
log2 fold change (vorinostat): inactive: 0.033
log2 fold change (silmitasertib): inactive: -0.028
log2 fold change [8]: inactive: -0.023
log2 fold change (entospletinib): inactive: -0.017

STIM2 isoform 2 (UniProt Q9P246)
log2 fold change (nilotinib): inactive: 0.036
log2 fold change [1]: inactive: -0.045
log2 fold change (dasatinib): inactive: 0.176
log2 fold change [2]: inactive: -0.122
log2 fold change [3]: inactive: 0.032
log2 fold change (quisinostat): inactive: 0.051
log2 fold change (tipifarnib): inactive: -0.051
log2 fold change [4]: inactive: -0.077
log2 fold change [5]: inactive: -0.07
log2 fold change [6]: inactive: 0.078
log2 fold change (vorinostat): inactive: -0.022
log2 fold change (silmitasertib): inactive: -0.069
log2 fold change [8]: inactive: -0.064
log2 fold change (entospletinib): inactive: 0.058

SYMPK (UniProt Q92797)
log2 fold change (nilotinib): inactive: 0.007
log2 fold change [1]: inactive: 0.014
log2 fold change (dasatinib): inactive: -0.064
log2 fold change [2]: inactive: -0.008
log2 fold change [3]: inactive: -0.004
log2 fold change (quisinostat): inactive: -0.026
log2 fold change (tipifarnib): inactive: -0.019
log2 fold change [4]: inactive: 0.06
log2 fold change [5]: inactive: 0.007
log2 fold change [6]: inactive: -0.019
log2 fold change [7]: inactive: 0.007
log2 fold change (vorinostat): inactive: -0.156
log2 fold change (silmitasertib): inactive: 0.01
log2 fold change [8]: inactive: 0.016
log2 fold change (entospletinib): inactive: 0.01

SYNE1 (UniProt Q8NF91)
log2 fold change (nilotinib): inactive: -0.049
log2 fold change [1]: inactive: -0.022
log2 fold change (dasatinib): inactive: 0.005
log2 fold change [2]: inactive: 0.176
log2 fold change [3]: inactive: -0.065
log2 fold change (quisinostat): inactive: -0.271
log2 fold change (tipifarnib): inactive: 0.036
log2 fold change [4]: inactive: 0.165
log2 fold change [5]: inactive: -0.084
log2 fold change [6]: inactive: -0.067
log2 fold change [7]: inactive: 0.216
log2 fold change (vorinostat): inactive: 0.106
log2 fold change (silmitasertib): inactive: -0.083
log2 fold change [8]: inactive: 0.357
log2 fold change (entospletinib): inactive: 0.028

STYX (UniProt Q8WUJ0)
log2 fold change (nilotinib): inactive: 0.043
log2 fold change [1]: inactive: 0.037
log2 fold change (dasatinib): inactive: -0.058
log2 fold change [2]: inactive: 0.115
log2 fold change [3]: inactive: -0.004
log2 fold change (quisinostat): inactive: -0.074
log2 fold change (tipifarnib): inactive: 0.088
log2 fold change [4]: inactive: 0.055
log2 fold change [5]: inactive: 0.01
log2 fold change [6]: inactive: -0.014
log2 fold change (vorinostat): inactive: -0.151
log2 fold change (silmitasertib): inactive: 0.073
log2 fold change [8]: inactive: 0.124
log2 fold change (entospletinib): inactive: 0.118

SYNJ2BP (UniProt P57105)
log2 fold change (nilotinib): inactive: -0.086
log2 fold change [1]: inactive: -0.001
log2 fold change (dasatinib): inactive: 0.055
log2 fold change [2]: inactive: -0.087
log2 fold change [3]: inactive: -0.038
log2 fold change (quisinostat): inactive: 0.009
log2 fold change (tipifarnib): inactive: 0.019
log2 fold change [4]: inactive: 0.01
log2 fold change [5]: inactive: 0.018
log2 fold change [6]: inactive: -0.009
log2 fold change [7]: inactive: -0.122
log2 fold change (vorinostat): inactive: 0.006
log2 fold change (silmitasertib): inactive: -0.002
log2 fold change [8]: inactive: -0.017
log2 fold change (entospletinib): inactive: -0.119

SUMO1 (UniProt P63165)
log2 fold change (nilotinib): inactive: 0.006
log2 fold change [1]: inactive: -0.001
log2 fold change (dasatinib): inactive: -0.023
log2 fold change [2]: inactive: 0.016
log2 fold change [3]: inactive: -0.016
log2 fold change (quisinostat): inactive: -0.042
log2 fold change (tipifarnib): inactive: 0.002
log2 fold change [4]: inactive: -0.064
log2 fold change [5]: inactive: -0.033
log2 fold change [6]: inactive: 0.126
log2 fold change [7]: inactive: -0.042
log2 fold change (vorinostat): inactive: 0.044
log2 fold change (silmitasertib): inactive: 0.076
log2 fold change [8]: inactive: -0.086
log2 fold change (entospletinib): inactive: -0.031

STK24 (UniProt B4DR80)
log2 fold change (nilotinib): inactive: 0.031
log2 fold change [1]: active: 0.298
log2 fold change (dasatinib): inactive: 0.092
log2 fold change [2]: inactive: 0.086
log2 fold change [3]: inactive: -0.005
log2 fold change (quisinostat): inactive: -0.019
log2 fold change (tipifarnib): inactive: 0.007
log2 fold change [4]: inactive: 0.187
log2 fold change [5]: inactive: 0.023
log2 fold change [6]: inactive: -0.005
log2 fold change [7]: inactive: 0.023
log2 fold change (vorinostat): inactive: 0.029
log2 fold change (silmitasertib): inactive: -0.014
log2 fold change [8]: inactive: -0.033
log2 fold change (entospletinib): inactive: 0.001

STX5 (UniProt Q13190)
log2 fold change (nilotinib): inactive: 0.05
log2 fold change [1]: inactive: 0.02
log2 fold change (dasatinib): inactive: -0.066
log2 fold change [2]: inactive: -0.01
log2 fold change [3]: inactive: 0.043
log2 fold change (quisinostat): inactive: -0.021
log2 fold change (tipifarnib): inactive: -0.029
log2 fold change [4]: inactive: 0.022
log2 fold change [5]: inactive: 0.054
log2 fold change [6]: inactive: -0.066
log2 fold change [7]: inactive: -0.016
log2 fold change (vorinostat): inactive: -0.11
log2 fold change (silmitasertib): inactive: 0.01
log2 fold change [8]: inactive: -0.003
log2 fold change (entospletinib): inactive: -0.029

TAF1B (UniProt Q53T94)
log2 fold change (nilotinib): inactive: -0.061
log2 fold change [1]: inactive: -0.067
log2 fold change (dasatinib): inactive: -0.174
log2 fold change [2]: inactive: -0.105
log2 fold change [3]: inactive: 0.635
log2 fold change (quisinostat): inactive: -0.064
log2 fold change (tipifarnib): inactive: -0.103
log2 fold change [4]: inactive: 0.017
log2 fold change [5]: inactive: 0.015
log2 fold change [7]: active: 0.673
log2 fold change [8]: inactive: -0.044
log2 fold change (entospletinib): inactive: -0.026

SURF2 (UniProt Q15527)
log2 fold change (nilotinib): inactive: -0.192
log2 fold change [1]: inactive: -0.052
log2 fold change (dasatinib): inactive: -0.045
log2 fold change [2]: inactive: 0.195
log2 fold change [3]: inactive: -0.031
log2 fold change (quisinostat): inactive: -0.054
log2 fold change (tipifarnib): inactive: 0.066
log2 fold change [4]: inactive: -0.036
log2 fold change [5]: inactive: 0.014
log2 fold change [7]: inactive: -0.01
log2 fold change [8]: inactive: 0.04
log2 fold change (entospletinib): inactive: 0.049

SYPL1 (UniProt Q16563)
log2 fold change (nilotinib): inactive: -0.005
log2 fold change [1]: inactive: -0.006
log2 fold change (dasatinib): inactive: 0.013
log2 fold change [2]: inactive: 0.025
log2 fold change [3]: inactive: -0.014
log2 fold change (quisinostat): inactive: -0.075
log2 fold change (tipifarnib): inactive: 0.034
log2 fold change [4]: inactive: -0.002
log2 fold change [5]: inactive: -0.013
log2 fold change [6]: inactive: -0.044
log2 fold change [7]: inactive: -0.003
log2 fold change (vorinostat): inactive: 0.005
log2 fold change (silmitasertib): inactive: -0.03
log2 fold change [8]: inactive: -0.02
log2 fold change (entospletinib): inactive: 0.014

STK17B (UniProt O94768)
log2 fold change (nilotinib): inactive: -0.006
log2 fold change [1]: inactive: -0.022
log2 fold change (dasatinib): inactive: -0.063
log2 fold change [2]: inactive: -0.197
log2 fold change [3]: inactive: 0.065
log2 fold change (quisinostat): inactive: -0.255
log2 fold change (tipifarnib): inactive: -0.08
log2 fold change [4]: inactive: 0.634
log2 fold change [6]: inactive: -0.021
log2 fold change (vorinostat): inactive: -0.221
log2 fold change (silmitasertib): active: 0.807
log2 fold change [8]: inactive: 0.052

SUPT5H isoform 2 (UniProt O00267)
log2 fold change (nilotinib): inactive: 0.072
log2 fold change [1]: inactive: 0.035
log2 fold change (dasatinib): inactive: -0.089
log2 fold change [2]: inactive: 0.072
log2 fold change [3]: inactive: 0.111
log2 fold change (quisinostat): inactive: -0.042
log2 fold change (tipifarnib): inactive: 0.012
log2 fold change [4]: inactive: 0.11
log2 fold change [5]: inactive: -0.076
log2 fold change [7]: inactive: 0.008
log2 fold change [8]: inactive: 0.102
